# Test results reported in paper PMC9243006.
# Target: T1, purified complement factor I (UniProt Q61129)
# T1 sequence: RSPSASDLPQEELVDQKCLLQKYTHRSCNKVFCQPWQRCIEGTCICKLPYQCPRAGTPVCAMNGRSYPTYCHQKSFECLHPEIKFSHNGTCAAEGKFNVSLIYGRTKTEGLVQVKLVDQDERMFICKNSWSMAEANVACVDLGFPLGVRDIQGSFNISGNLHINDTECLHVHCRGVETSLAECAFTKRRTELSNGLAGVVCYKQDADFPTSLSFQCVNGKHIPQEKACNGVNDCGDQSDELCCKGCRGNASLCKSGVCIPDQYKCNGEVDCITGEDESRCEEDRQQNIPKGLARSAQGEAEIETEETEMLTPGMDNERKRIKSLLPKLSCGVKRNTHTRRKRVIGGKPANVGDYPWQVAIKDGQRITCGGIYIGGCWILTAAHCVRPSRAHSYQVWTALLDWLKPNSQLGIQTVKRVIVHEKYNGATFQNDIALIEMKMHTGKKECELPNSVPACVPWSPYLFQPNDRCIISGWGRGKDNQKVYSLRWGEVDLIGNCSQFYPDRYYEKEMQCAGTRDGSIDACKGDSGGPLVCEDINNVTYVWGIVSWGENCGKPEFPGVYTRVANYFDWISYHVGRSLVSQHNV
# Experiment: ELISA; CFI (20 µg/ml) or C3b (20 µg/ml) coated overnight at 4 °C; rmCD46 or mutants (40 µg/ml) at 37 °C for 2 h; anti-His detection; both purified
row,Substance,binding
1,rmCD46ΔCCP2 (mouse) (domain or fragment),binds
2,rmCD46ΔCCP12 (mouse) (domain or fragment),binds

# No constants are given. Whether binding was seen depends on the method and setting. Binding calls can cover weak binding; strength is not graded here.
